PubChem BioAssay AID504764, Drosophila RNAi Screening Center, 2011
The deposit covers about 22,000 reagents; this is a random part of those that have a named target and a result. Over the whole deposit, 403 (1.9%) are marked active. 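Unnormalised raw counts per well; ratio z-scores behind the hit calls and whether each hit raises or lowers signal are not deposited.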 No sequences are given here. Not given: the amount of reagent.

Assay: 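Genes whose knock-down alters Notch-dependent transcription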 (primary screen)
Cells: Drosophila Kc167 cells
Reagents: long dsRNA against Drosophila genes
Duration: about 5 days (4 days dsRNA, then 24 h after transfection)
Conditions: transfection of constitutively active membrane-tethered Notch lacking the extracellular domain, read 24 h later
Read-out: 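Light from a Notch-responsive E(spl)m3 luciferase reporter under active Notch, with control-promoter and no-Notch reporter wells to normalise; raw counts from paired wells a and b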
Direction: induced reporter light, run 1, well a and induced reporter light, run 1, well b: higher = more light from the Notch target reporter with active Notch; control promoter light, run 1, well a and control promoter light, run 1, well b: higher = more light from the viral control promoter (cell number, transfection, viability); uninduced reporter light, run 1, well a: higher = more light from the Notch target reporter without active Notch
Call rule: 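Hit if the duplicate-averaged log2 ratio of induced to control-promoter light gives a plate-wise z beyond ±2, or induced to uninduced beyond ±1.8; weak-control or discordant-duplicate wells dropped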
Calls: active = modifier hit (raised or lowered Notch signal); inactive = not a hit

{"Target gene": "CG13068", "DRSC id": "DRSC09951", "induced reporter light, run 1, well a": 2.03e5, "induced reporter light, run 1, well b": 1.71e5, "control promoter light, run 1, well a": 2.38e5, "control promoter light, run 1, well b": 2.35e5, "uninduced reporter light, run 1, well a": 6850, "outcome": "inactive"}
{"Target gene": "Pgam5-2", "DRSC id": "DRSC04278", "induced reporter light, run 1, well a": 1.78e5, "induced reporter light, run 1, well b": 1.49e5, "control promoter light, run 1, well a": 1.62e5, "control promoter light, run 1, well b": 1.82e5, "uninduced reporter light, run 1, well a": 11750, "outcome": "inactive"}
{"Target gene": "squ", "DRSC id": "DRSC01549", "induced reporter light, run 1, well a": 71915, "induced reporter light, run 1, well b": 53890, "control promoter light, run 1, well a": 64925, "control promoter light, run 1, well b": 56550, "uninduced reporter light, run 1, well a": 5580, "outcome": "inactive"}
{"Target gene": "CG4017", "DRSC id": "DRSC02733", "induced reporter light, run 1, well a": 99485, "induced reporter light, run 1, well b": 1.34e5, "control promoter light, run 1, well a": 65440, "control promoter light, run 1, well b": 89080, "uninduced reporter light, run 1, well a": 14470, "outcome": "inactive"}
{"Target gene": "Ir94a", "DRSC id": "DRSC13538", "induced reporter light, run 1, well a": 70510, "induced reporter light, run 1, well b": 75815, "control promoter light, run 1, well a": 83685, "control promoter light, run 1, well b": 74695, "uninduced reporter light, run 1, well a": 10520, "outcome": "inactive"}
{"Target gene": "CG14102", "DRSC id": "DRSC10103", "induced reporter light, run 1, well a": 1.20e5, "induced reporter light, run 1, well b": 1.20e5, "control promoter light, run 1, well a": 1.21e5, "control promoter light, run 1, well b": 97830, "uninduced reporter light, run 1, well a": 14595, "outcome": "inactive"}
{"Target gene": "Cyt-b5", "DRSC id": "DRSC07392", "induced reporter light, run 1, well a": 1.96e5, "induced reporter light, run 1, well b": 2.03e5, "control promoter light, run 1, well a": 1.80e5, "control promoter light, run 1, well b": 1.59e5, "uninduced reporter light, run 1, well a": 17265, "outcome": "inactive"}
{"Target gene": "Eig71Ei", "DRSC id": "DRSC11156", "induced reporter light, run 1, well a": 1.53e5, "induced reporter light, run 1, well b": 1.59e5, "control promoter light, run 1, well a": 1.77e5, "control promoter light, run 1, well b": 1.72e5, "uninduced reporter light, run 1, well a": 7470, "outcome": "inactive"}

Laid out differently: 2 of the entries above
{"Target gene":"squ","DRSC id":"DRSC01549","induced reporter light, run 1, well a":71915,"induced reporter light, run 1, well b":53890,"control promoter light, run 1, well a":64925,"control promoter light, run 1, well b":56550,"uninduced reporter light, run 1, well a":5580,"outcome":"inactive"}
{"Target gene":"CG4017","DRSC id":"DRSC02733","induced reporter light, run 1, well a":99485,"induced reporter light, run 1, well b":1.34e5,"control promoter light, run 1, well a":65440,"control promoter light, run 1, well b":89080,"uninduced reporter light, run 1, well a":14470,"outcome":"inactive"}

The listing continues.
{"Target gene": "Glyp", "DRSC id": "DRSC00752", "induced reporter light, run 1, well a": 2.01e5, "induced reporter light, run 1, well b": 1.93e5, "control promoter light, run 1, well a": 2.72e5, "control promoter light, run 1, well b": 2.92e5, "uninduced reporter light, run 1, well a": 11955, "outcome": "inactive"}
{"Target gene": "bam", "DRSC id": "DRSC16907", "induced reporter light, run 1, well a": 1.20e5, "induced reporter light, run 1, well b": 1.24e5, "control promoter light, run 1, well a": 1.61e5, "control promoter light, run 1, well b": 1.64e5, "uninduced reporter light, run 1, well a": 10110, "outcome": "inactive"}
{"Target gene": "CG31109", "DRSC id": "DRSC14648", "induced reporter light, run 1, well a": 1.49e5, "induced reporter light, run 1, well b": 1.83e5, "control promoter light, run 1, well a": 2.31e5, "control promoter light, run 1, well b": 1.93e5, "uninduced reporter light, run 1, well a": 14370, "outcome": "inactive"}
{"Target gene": "HSPC300", "DRSC id": "DRSC22880", "outcome": "inactive"}
